Measurements reported in PubChem BioAssay AID1259424 (University of Nebraska Medical Center, 2018)
Shown is an unselected part of about 14,000 reagents. 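Higher correlation or smaller distance means closer resemblance to KSR1 loss; control wells, including KSR1 knockdowns, recur on many plates.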 Reagent sequences are not shown. Not stated in the record: the time to read-out.

Aim: 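Seek colon cancer survival genes behaving like KSR1, using a six-gene signature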 (primary screen)
Cell system: human HCT116 colon cancer cells
Knock-down reagent: siRNA pool against human genes, 50 nM
Measured: 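Six signature mRNAs by branched-DNA multiplex assay, scaled to two housekeeping genes and non-targeting median, log2; matched to mean KSR1 knockdown profile by Pearson correlation and euclidean distance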
Scale: mean correlation with KSR1 profile and KSR1 correlation: higher = expression change more like KSR1 knockdown; mean distance from KSR1 profile: higher = expression change less like KSR1 knockdown

| mean correlation with KSR1 profile | mean distance from KSR1 profile | KSR1 correlation, replicate 1 | KSR1 correlation, replicate 2 | KSR1 correlation, replicate 3 | gene |
| --- | --- | --- | --- | --- | --- |
| -0.729 | 1.67 | -0.462 | -0.842 | -0.835 | YEATS4 |
| -0.351 | 1.31 | -0.598 | -0.543 | -0.0164 | CYREN |
| -0.381 | 2.01 | -0.209 | -0.566 | -0.4 | TPM1 |
| -0.442 | 1.51 | -0.15 | -0.601 | -0.535 | CHRNA6 |
| 0.454 | 2.08 | 0.296 | 0.562 | 0.373 | ZCRB1 |
| -0.0936 | 1.15 | -0.318 | 0.107 | 0.364 | ARHGDIB |
| -0.0471 | 2.86 | 0.0292 | 0.0131 | -0.185 | SMC5 |
| 0.617 | 3.3 | 0.681 | 0.678 | 0.557 | PKM |
| 0.158 | 1.47 | -0.34 | 0.178 | 0.0829 | AHDC1 |
| -0.0443 | 2.51 | -0.0914 | 0.272 | 0.193 | CLPP |
| 0.175 | 2.1 | 0.123 | 0.128 | 0.175 | RAB18 |
| 0.339 | 1.21 | 0.381 | 0.309 | 0.306 | MACROH2A1 |
| -0.556 | 3.35 | -0.414 | -0.605 | -0.662 | KMT2C |
| 0.935 | 1.08 | 0.964 | 0.923 | 0.844 | PSG7 |
| 0.243 | 1.83 | 0.0306 | 0.0168 | 0.312 | NOL12 |
| 0.347 | 1.73 | 0.439 | 0.145 | 0.252 | ARMC6 |
| 0.314 | 3.35 | 0.428 | 0.275 | 0.225 | SPATA2 |
| 0.129 | 2.71 | -0.0299 | 0.124 | -0.000845 | MED28 |
| -0.745 | 3.03 | -0.802 | -0.739 | -0.584 | JADE2 |
| -0.0604 | 1.94 | 0.292 | -0.0395 | -0.216 | AKR1C8 |
| -0.0572 | 3.53 | -0.0179 | -0.0697 | -0.16 | RPL14 |
| 0.333 | 1.14 | 0.0128 | 0.439 | 0.0238 | FHIP2B |
| -0.671 | 5.33 | -0.157 | -0.181 | -0.419 | ERMN |
| -0.749 | 2.24 | -0.772 | -0.744 | -0.696 | ZNF350 |
| -0.059 | 2.31 | -0.0812 | -0.441 | -0.175 | LHFPL2 |
| -0.885 | 2.3 | -0.876 | -0.746 | -0.806 | CHORDC1 |
| 0.102 | 1.67 | 0.298 | 0.0523 | 0.0691 | HSPB7 |
| 0.186 | 0.936 | -0.136 | 0.26 | 0.444 | SLC1A2 |
| 0.35 | 1.24 | 0.485 | 0.392 | 0.273 | UFC1 |
| -0.153 | 3.08 | -0.126 | -0.232 | -0.17 | PRCC |
| -0.715 | 2.18 | -0.698 | -0.401 | -0.707 | SHTN1 |
| 0.258 | 2.95 | 0.43 | 0.406 | -0.0249 | TRIB2 |
| -0.576 | 2.17 | -0.347 | -0.763 | -0.675 | MIF |
| 0.213 | 2.15 | 0.106 | 0.177 | 0.312 | RFC2 |
| 0.35 | 1.37 | 0.187 | 0.232 | 0.487 | IL10 |
| -0.773 | 2.64 | -0.847 | -0.894 | -0.506 | NOP56 |
| 0.344 | 0.855 | 0.298 | 0.735 | 0.198 | TAC1 |
| 0.406 | 2.3 | 0.404 | 0.521 | 0.386 | C22orf46P |
| 0.563 | 2.41 | 0.625 | 0.659 | 0.542 | P2RY4 |
| -0.449 | 4.27 | -0.593 | -0.371 | -0.0894 | RPL23 |
| 0.87 | 1.45 | 0.857 | 0.873 | 0.828 | GPR75 |
| -0.377 | 1.82 | -0.535 | -0.0738 | -0.418 | BET1L |
| 0.253 | 2.29 | 0.364 | 0.183 | 0.184 | SHD |
| -0.599 | 2.03 | -0.619 | -0.717 | -0.534 | DSTN |
| -0.257 | 3.17 | -0.18 | -0.209 | -0.507 | AP2A2 |
| -0.0256 | 3.99 | -0.0187 | 0.00237 | -0.112 | UBASH3A |
| 0.0212 | 1.4 | 0.00868 | 0.0609 | -0.0819 | DUSP11 |
| 0.812 | 1.73 | 0.772 | 0.797 | 0.751 | LTBP2 |
| 0.361 | 1.21 | 0.463 | 0.189 | 0.0614 | HDAC11 |
| 0.0571 | 0.964 | -0.374 | -0.0364 | 0.425 | IL15 |
